PubChem BioAssay (NCATS)
The other results are listed elsewhere or left out. Shown are side measurements of this screen, not its main read-out; they come without a call. The list favours compounds with an active or inconclusive main result. For some of these results: Words in brackets tell the shape of the fitted curve; partial curves, single points and poor fits give uncertain potencies.

Test: qHTS assay for small molecule antagonists of retinoid X receptor alpha signaling (AID 588546);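 also: cells stimulated with 9-cis-retinoic acid as agonist; % is scaled to controls: 0 for no effect and ±100 for the full control effect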
Settings: HEK293T RXRa-UAS-bla, beta-lactamase ratio, antagonist mode; measured here: W530 green channel, cytotoxicity proxy
Outline: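 Beta-lactamase reporter inhibition, read as CCF4 fluorescence ratio (ex 405, em 460/530 nm) after 2 h at RT. HEK293T UAS-bla cells, 2500/well, were stimulated with 9-cis-RA at 500 or 100 nM final alongside test compound for 18 h at 37 C.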

| Compound | max response |
| --- | --- |
| Clc1ccc2ccccc2c1 | -17.8% |
| CC(C)[C@H](C(=O)O[C@H](C#N)c1cccc(Oc2ccccc2)c1)c1ccc(Cl)cc1 | -9.23% |
| O=c1[nH]c(=O)n(Cl)c(=O)n1Cl | 7.08% |

Test: S16 Schwann cell PMP22 intronic element beta-lactamase assay (AID 624044)
Settings: S16 rat Schwann cells, PMP22 element beta-lactamase FRET, 24 h; measured here: 460 nm blue channel
Outline: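 Rat S16 Schwann cells with beta-Lac driven by a PMP22 intronic element, compound-treated 24 h at 37 °C. LiveBLAzer FRET B/G read: 460 nm normalized to potassium clavulanate vs DMSO; 535 nm FRET as viability; concentration-effect curves classified.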

| Compound | AC50 |
| --- | --- |
| CCCCCCCCCC[N+](C)(C)CCCCCCCCCC | 22.4 µM [falling, partial curve] |
| C=CCC1(C(C)CCC)C(=O)N=C(S)NC1=O (stereo unspecified) | 3.55 µM [falling, full curve, poor fit] |
| CCC/C=C/C=C/C(=O)OC1/C(=C/C(=O)OC)CC2CC(C(C)O)OC(=O)CC(O)CC3CC(OC(C)=O)C(C)(C)C(O)(CC4C/C(=C/C(=O)OC)CC(/C=C\C(C)(C)C1(O)O2)O4)O3 (stereo unspecified) | 22.4 µM [falling, partial curve] |
| CCS(=O)(=O)C(C)(C)S(=O)(=O)CC | 12.6 µM [falling, single point] |
| CCOC(=O)NC(O)C(Cl)(Cl)Cl (stereo unspecified) | 14.1 µM [falling, single point] |
| CCNc1nc(Cl)nc(NCC)n1 | 3.98 µM [falling, full curve, poor fit] |
| Cc1cc(C)cc(C(=O)OC2CC3CCC(C2)N3C)c1 (stereo unspecified) | 12.6 µM [falling, partial curve, poor fit] |
| CN(C)C(=S)SC(=S)N(C)C | 3.16 µM [falling, full curve, poor fit] |
| CC(C)n1c(/C=C/[C@H](O)C[C@H](O)CC(=O)O)c(-c2ccc(F)cc2)c2ccccc21 | 12.6 µM [falling, partial curve] |
| Cc1ncc2n1-c1ccc(Cl)cc1C(c1ccccc1F)=NC2 | 0.501 µM [falling, full curve, poor fit] |
| CN1C(=O)CC(=O)N(c2ccccc2)c2cc(Cl)ccc21 | 0.0446 µM [falling, full curve, poor fit] |
| CCCC1CCCCN1 (stereo unspecified) | 0.0562 µM [falling, full curve, poor fit] |
| COc1cccc2c1C(=O)c1c(O)c3c(c(O)c1C2=O)C[C@@](O)(C(=O)CO)C[C@@H]3O[C@H]1C[C@H](N)[C@H](OC2CCCCO2)[C@H](C)O1 (stereo partly specified) | 1.99 µM [falling, full curve] |
